{"sequences": {"note": "By UniProt entry, the sequences of proteins in these tests, tags left out.", "UniProt Q13098": "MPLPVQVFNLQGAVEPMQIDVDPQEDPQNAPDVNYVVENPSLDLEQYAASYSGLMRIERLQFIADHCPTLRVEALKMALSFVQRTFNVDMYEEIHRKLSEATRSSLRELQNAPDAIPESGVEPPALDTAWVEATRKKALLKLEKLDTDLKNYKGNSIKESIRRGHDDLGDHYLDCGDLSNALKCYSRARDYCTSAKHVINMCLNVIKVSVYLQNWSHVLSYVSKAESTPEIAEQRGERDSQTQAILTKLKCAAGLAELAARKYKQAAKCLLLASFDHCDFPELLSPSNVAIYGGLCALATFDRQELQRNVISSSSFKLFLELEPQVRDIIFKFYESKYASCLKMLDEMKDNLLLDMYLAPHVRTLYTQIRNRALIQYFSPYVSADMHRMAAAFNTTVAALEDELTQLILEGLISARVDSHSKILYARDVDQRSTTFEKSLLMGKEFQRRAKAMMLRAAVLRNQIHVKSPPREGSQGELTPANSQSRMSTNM", "UniProt Q92905": "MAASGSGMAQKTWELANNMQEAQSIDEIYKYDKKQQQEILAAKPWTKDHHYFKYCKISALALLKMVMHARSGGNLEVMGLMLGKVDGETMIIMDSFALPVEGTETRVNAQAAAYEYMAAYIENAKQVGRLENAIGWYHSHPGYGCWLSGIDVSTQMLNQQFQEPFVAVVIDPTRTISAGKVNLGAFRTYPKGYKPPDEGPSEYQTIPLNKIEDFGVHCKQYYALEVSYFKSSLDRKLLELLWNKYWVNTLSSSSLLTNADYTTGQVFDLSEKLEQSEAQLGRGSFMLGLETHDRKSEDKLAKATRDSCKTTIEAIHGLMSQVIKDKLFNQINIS"}, "source": "paper PMC4140821", "target": "CSN1 (subunit of the recombinant CSN) (human) (UniProt Q13098)", "assay": "cross-linking; CX-MS: about 100 µl of 1.2 mg/ml recombinant CSN cross-linked with 1 mM DSS d0/d12, tryptic digestion, LC-MS/MS, xQuest; both purified", "note": "No constants are given. Whether binding was seen depends on the method and setting. Some results given as binding are weak or reduced against the parent protein; the word gives no strength."}
{"substance": "CSN5 (subunit of the recombinant CSN) (from UniProt Q92905 1-334)", "values": [{"measurement": "binding", "result": "binds"}]}
